# Results taken from the supplement of paper PMC5407854, “Inhibitor of ppGalNAc-T3-mediated O-glycosylation blocks cancer cell invasiveness and lowers FGF23 levels” (eLife, 2017).
# Over roughly 1,700 compounds, “T2 sensor activation Q score (MG/GFP ratio z-score vs DMSO controls)” has its median near 0.3; the highest 2% begin near 1.9. Some of the results follow.
# System: ppGalNAc-T2 sensor
# Assay: T2 sensor activation Q score (MG/GFP ratio z-score vs DMSO controls) (SD units); higher = more sensor activation (inhibition of ppGalNAc-T2 glycosylation)
# Conditions: HEK293 sensor cells; 10 µM; 6 h
# Protocol: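 Cells were treated with compound at 10 uM for 6 h, then MG/GFP ratio was read by flow cytometry (10,000 cells per well, duplicate wells). Q = (R - R_neg)/SD_neg relative to DMSO vehicle controls; the signal rises when the glycosyltransferase is inhibited.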
row,SMILES,T2 sensor activation Q score
1,Cc1c(Cl)cccc1NC(=O)CC1Sc2ccccc2NC1=O (stereo not drawn),2
2,Cn1c(C(=O)c2ccncc2)cc2ccccc21,-1.65
3,Cc1nc([C@H]2CC[C@H]3[C@@H]4CCC5=CC(=O)CC[C@]5(C)[C@H]4CC[C@]23C)cs1,-0.15
4,Nc1ccc2c(c1Cl)C(=O)c1ccc(N)c(Cl)c1C2=O,0.3
5,O=[N+]([O-])c1cccnc1Oc1cc(Cl)c(Cl)cc1Cl,0.6
6,CCOc1ccc(/C=C2\NC(=S)NC2=O)cc1,1.75
7,CSC(=O)NC(=O)NC(=O)c1ccc([N+](=O)[O-])cc1,1.05
8,COc1cc2c(O)cc(C(=O)O)c(-c3cc(OC)c(OC)c(OC)c3)c2cc1OC,0.35
9,CC1(C)CC(Nc2ccc(Nc3ccccc3)cc2)CC(C)(C)N1,1.05
10,Cc1nc([N+](=O)[O-])cn1-c1nc2ccccn2c1[N+](=O)[O-],1
11,CCCc1nc2c([nH]1)c(=O)n(C)c(=O)n2C,1.8
12,CC(C)NCC1CCc2cc(CO)c([N+](=O)[O-])cc2N1 (stereo not drawn),-0.55
13,CCOC(=O)Nc1cc2c(c(N)n1)N=C(c1ccccc1)CN2,1.55
14,COC1OCC(O)C(NC(=O)N(C)N=O)C1O (stereo not drawn),1.2
15,CC(C)N(Cc1ccccc1)S(=O)(=O)c1n[nH]c(C(C)(C)C)n1,-1.75
16,CCCCNC(=O)Nc1ccccc1CC,1.7
17,CC1(C)SC(C)(C)N(C=O)C1C(=O)O (stereo not drawn),0.45
18,CCCCCOC(=O)Nc1nc(=O)n([C@@H]2O[C@H](C)[C@@H](O)[C@H]2O)cc1F,-1.35
19,Cc1cc2c(cc1[N+](=O)[O-])NC(CNC(C)C)CC2 (stereo not drawn),-0.5
20,NS(=O)(=O)c1ccc(N=Nc2c(O)c(C(=O)O)cc3ccccc23)cc1,0.1
21,Nc1cc(Nc2ccc(Br)cc2)nc(N)n1,0.6

# Two successive records from above:
row,SMILES,T2 sensor activation Q score
19,Cc1cc2c(cc1[N+](=O)[O-])NC(CNC(C)C)CC2 (stereo not drawn),-0.5
20,NS(=O)(=O)c1ccc(N=Nc2c(O)c(C(=O)O)cc3ccccc23)cc1,0.1

# Later entries:

row,SMILES,T2 sensor activation Q score
1,COc1nc(N)nc2c1ncn2[C@@H]1O[C@H](CO)[C@@H](O)[C@@H]1O,0.1
2,CCCCn1c(OC(=S)N(CC)CC)cc(C)nc1=S,0.1
3,Oc1ccccc1-c1nc2c3ccccc3c3ccccc3c2[nH]1,-1.5
4,CCCCSc1nc(C(=O)O)cc(=O)[nH]1,1.55
5,CN(CCC#N)c1ccc(/C=C(\C#N)c2cccc(C(F)(F)F)c2)cc1,1.85
6,O=C(O)c1cc(O)ccc1N=Nc1ccccc1,1.55
7,CC(C)C(=O)c1ccc(O)c(O)c1,0.9
8,Cc1c(CCO)c(=O)n2n1CCCC2,-0.2
9,CCn1c(=O)n(C)c2c(=O)n(C)c(=O)n(C)c21,-1.1
10,Cc1nc2sc3c(c2c(=O)[nH]1)CCCC3,0
11,CCn1c2ccccc2c2c3ncc4cccn4c3ccc21,0
12,CCOC(=O)c1cnn2c(SC)ncnc12,-0.3
13,C/C(=N\NC(=S)N1CC2CCC(CC2)C1)c1cnccn1,-1.25
14,CCn1c2ccccc2nc2cc3c(cc21)c(Cl)c(=O)c1ccccc13,0.25
15,O=C1CCC(N2C(=O)c3ccccc3C2=O)C(=O)N1 (stereo not drawn),0.2
16,CCC(C)NC(=S)Nc1ccccc1 (stereo not drawn),-0.05
17,COc1cc2c(cc1OC)C(=O)Cc1ccc3c(c1CN(C)CC2)OCO3,1.1
18,Nc1nc(N)nc(-c2ccccc2-c2nc(N)nc(N)n2)n1,0.1
19,O=C(Nc1ccc(C2=NCCCN2)cc1)Nc1ccc(C2=NCCCN2)cc1,-0.6
20,CCOc1ccc(NC(=O)N(O)C2(C#N)CCCCC2)cc1,0.95
21,Cc1cc(N2CCOCC2)nc(N2CCOCC2)n1,0.15

row,SMILES,T2 sensor activation Q score
1,CC(C)(c1cc(Cl)c(O)c(CN2CCOCC2)c1)c1cc(Cl)c(O)c(CN2CCOCC2)c1,1.2
2,O=c1[nH]cnc2[nH]ncc12,-0.85
3,CC(C)c1nc2c([nH]1)c(=O)n(C)c(=O)n2C,-3.2
4,C1COCCN1.O=C(O)C(C=C(Cl)Cl)N1CCOCC1 (stereo not drawn),2.65
5,O=C(O)CCCC[C@@H]1SC[C@@H]2NC(=O)N[C@@H]21,0.9
6,CCOC(=O)C(=O)Cc1cccnn1,-1.15
7,O=C1C(Br)=Cc2cccc3cccc1c23,0.9
8,CCSc1ncc(CO)c(N)n1,1.65
9,OC1COC(OCc2ccccc2)C(O)C1O (stereo not drawn),0.35
10,Nc1cc(N)nc(CS)n1,1.45
11,N#Cc1nnn(-c2ccc(Cl)cc2)c1N,1
12,CN(C)C/C=C/C(=O)Nc1cc2c(Nc3ccc(F)c(Cl)c3)ncnc2cc1O[C@H]1CCOC1,-2.15
13,S=C(Nc1ccccc1)c1ccccn1,1.05
14,Nc1ccc2c(c1)nnn2-c1ccccc1,0.85
15,NC(=Nc1ccc(N)cc1)C(N)=Nc1ccc(N)cc1,-1.4
16,C=C1CC2(OC1=O)c1ccccc1CCc1ccccc12,-1.9
17,Cc1ccc(S(=O)(=O)N(C)C)cc1[N+](=O)[O-],1.6
18,C#CCC(Cc1cnc2nc(N)nc(N)c2n1)c1ccc(C(=O)N[C@@H](CCC(=O)O)C(=O)O)cc1 (stereo partly drawn),0
19,Clc1ccc2nc3ccccc3cc2c1,1.3
20,CSc1ccc(NC(=O)Nc2ccccc2C(N)=O)cc1,0.75
21,O=[N+]([O-])c1cc(Cl)cc2c1nc(NCCO)c1ccccc12,-0.15
